Earlier results, collected in patent US7579333B2 (Teva Pharmaceutical Industries Ltd., priority 2004, dated 2009).

Test system: femoral bone mass density
Conditions: 1 year; 60 mg/day raloxifene, 10 mg/day alendronate; 331 patients

NCCCC(O)(P(=O)(O)O)P(=O)(O)O [alendronate]
improvement in femoral bone mass density: 2.7%
